Measured values: the supplement of paper PMC10849652
The other results are listed elsewhere or left out. Residues, ends and D or L forms follow the SMILES beside them. *: point of attachment. Cbz = O=C(OCc1ccccc1)*

Amino acid sequences for entries named in this document (tags omitted). A change or cut given only in a name is not applied to a line headed by its entry.
UniProt Q66K64, whole entry, looked up: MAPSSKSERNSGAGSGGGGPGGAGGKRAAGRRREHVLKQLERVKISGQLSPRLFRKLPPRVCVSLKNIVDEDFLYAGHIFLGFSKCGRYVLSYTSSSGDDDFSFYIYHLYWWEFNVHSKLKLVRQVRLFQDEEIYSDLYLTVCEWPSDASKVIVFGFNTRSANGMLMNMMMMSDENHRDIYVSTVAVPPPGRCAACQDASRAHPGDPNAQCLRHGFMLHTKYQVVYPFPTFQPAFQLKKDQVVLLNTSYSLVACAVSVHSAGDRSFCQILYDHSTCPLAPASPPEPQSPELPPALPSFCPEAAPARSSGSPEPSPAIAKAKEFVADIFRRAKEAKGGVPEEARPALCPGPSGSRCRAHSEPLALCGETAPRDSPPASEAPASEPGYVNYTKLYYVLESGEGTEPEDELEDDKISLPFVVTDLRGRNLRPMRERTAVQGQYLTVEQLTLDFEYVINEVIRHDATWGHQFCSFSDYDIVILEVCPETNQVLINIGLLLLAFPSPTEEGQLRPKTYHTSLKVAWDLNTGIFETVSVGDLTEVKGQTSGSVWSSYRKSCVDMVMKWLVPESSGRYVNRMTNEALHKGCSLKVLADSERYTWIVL
UniProt Q6PI48: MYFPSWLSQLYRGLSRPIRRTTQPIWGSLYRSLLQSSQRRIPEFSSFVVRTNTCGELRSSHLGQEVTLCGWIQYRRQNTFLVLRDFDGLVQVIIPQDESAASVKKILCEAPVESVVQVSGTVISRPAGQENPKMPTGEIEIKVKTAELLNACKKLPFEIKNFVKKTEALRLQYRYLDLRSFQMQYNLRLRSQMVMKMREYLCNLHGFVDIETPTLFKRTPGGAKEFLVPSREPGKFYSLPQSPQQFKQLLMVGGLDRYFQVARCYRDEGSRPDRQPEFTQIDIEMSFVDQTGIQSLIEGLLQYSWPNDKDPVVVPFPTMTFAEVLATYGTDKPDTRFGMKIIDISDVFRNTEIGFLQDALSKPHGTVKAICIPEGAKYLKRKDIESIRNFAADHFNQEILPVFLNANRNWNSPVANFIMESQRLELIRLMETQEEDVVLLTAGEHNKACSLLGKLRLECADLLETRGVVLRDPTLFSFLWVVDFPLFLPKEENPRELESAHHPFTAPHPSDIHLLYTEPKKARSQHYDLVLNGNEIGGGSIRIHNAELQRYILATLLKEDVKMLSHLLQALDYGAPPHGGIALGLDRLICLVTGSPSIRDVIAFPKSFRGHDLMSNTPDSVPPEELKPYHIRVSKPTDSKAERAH
UniProt O00399, whole entry, looked up: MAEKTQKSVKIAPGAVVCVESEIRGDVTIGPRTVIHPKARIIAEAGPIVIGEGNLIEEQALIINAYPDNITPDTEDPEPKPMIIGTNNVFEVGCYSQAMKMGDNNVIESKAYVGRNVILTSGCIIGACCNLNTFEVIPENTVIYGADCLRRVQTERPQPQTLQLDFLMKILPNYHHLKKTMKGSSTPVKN
UniProt Q9NXE8: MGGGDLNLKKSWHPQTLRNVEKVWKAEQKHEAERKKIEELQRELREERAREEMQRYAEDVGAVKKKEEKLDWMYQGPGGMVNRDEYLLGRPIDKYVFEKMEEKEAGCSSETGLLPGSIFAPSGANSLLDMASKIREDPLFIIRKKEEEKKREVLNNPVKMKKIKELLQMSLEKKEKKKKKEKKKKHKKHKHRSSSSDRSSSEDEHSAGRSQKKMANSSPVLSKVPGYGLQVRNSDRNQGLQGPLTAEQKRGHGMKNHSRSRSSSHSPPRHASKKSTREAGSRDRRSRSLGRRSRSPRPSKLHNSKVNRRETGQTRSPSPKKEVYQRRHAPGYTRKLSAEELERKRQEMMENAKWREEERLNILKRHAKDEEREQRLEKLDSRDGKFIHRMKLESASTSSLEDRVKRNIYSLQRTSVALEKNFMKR
UniProt P10619: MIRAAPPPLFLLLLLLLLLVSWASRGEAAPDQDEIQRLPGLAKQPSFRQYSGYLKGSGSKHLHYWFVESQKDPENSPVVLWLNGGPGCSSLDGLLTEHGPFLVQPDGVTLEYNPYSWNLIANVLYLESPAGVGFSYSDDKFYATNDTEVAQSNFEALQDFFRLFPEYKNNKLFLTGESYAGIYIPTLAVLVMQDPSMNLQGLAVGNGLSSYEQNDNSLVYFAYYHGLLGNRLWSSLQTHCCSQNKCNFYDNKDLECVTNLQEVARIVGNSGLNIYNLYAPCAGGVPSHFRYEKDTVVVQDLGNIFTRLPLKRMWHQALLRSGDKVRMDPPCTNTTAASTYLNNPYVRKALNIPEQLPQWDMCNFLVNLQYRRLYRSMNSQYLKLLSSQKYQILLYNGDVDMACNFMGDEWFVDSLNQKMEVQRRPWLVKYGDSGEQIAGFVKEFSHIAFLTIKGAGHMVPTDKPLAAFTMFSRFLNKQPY
UniProt Q9H467: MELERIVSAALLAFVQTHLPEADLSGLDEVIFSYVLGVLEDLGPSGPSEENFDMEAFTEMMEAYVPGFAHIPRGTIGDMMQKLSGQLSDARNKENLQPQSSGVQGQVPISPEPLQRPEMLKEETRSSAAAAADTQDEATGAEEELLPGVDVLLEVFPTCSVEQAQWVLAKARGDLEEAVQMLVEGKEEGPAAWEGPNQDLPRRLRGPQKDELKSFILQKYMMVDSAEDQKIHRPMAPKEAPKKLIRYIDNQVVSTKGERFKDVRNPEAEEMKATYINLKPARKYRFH
UniProt P49711: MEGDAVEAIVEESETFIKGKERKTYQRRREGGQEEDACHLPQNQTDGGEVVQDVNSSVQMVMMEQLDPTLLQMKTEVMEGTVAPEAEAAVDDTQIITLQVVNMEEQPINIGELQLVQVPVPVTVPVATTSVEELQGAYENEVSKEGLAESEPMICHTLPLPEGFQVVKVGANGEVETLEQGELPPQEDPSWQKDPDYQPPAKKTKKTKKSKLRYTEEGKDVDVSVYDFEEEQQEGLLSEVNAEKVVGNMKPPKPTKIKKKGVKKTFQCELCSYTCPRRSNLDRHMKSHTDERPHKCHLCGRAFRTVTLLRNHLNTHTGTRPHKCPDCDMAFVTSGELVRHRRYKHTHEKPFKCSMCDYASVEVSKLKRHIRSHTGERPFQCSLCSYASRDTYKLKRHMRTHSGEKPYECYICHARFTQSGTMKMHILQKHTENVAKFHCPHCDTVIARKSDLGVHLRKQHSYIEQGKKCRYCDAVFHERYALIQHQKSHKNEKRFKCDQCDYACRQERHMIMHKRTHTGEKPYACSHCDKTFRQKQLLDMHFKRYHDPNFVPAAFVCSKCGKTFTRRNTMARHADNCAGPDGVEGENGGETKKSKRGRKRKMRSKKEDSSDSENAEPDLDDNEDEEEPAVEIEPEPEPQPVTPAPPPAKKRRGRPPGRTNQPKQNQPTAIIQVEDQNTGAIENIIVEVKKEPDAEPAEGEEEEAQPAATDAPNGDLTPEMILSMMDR
UniProt Q96EP5: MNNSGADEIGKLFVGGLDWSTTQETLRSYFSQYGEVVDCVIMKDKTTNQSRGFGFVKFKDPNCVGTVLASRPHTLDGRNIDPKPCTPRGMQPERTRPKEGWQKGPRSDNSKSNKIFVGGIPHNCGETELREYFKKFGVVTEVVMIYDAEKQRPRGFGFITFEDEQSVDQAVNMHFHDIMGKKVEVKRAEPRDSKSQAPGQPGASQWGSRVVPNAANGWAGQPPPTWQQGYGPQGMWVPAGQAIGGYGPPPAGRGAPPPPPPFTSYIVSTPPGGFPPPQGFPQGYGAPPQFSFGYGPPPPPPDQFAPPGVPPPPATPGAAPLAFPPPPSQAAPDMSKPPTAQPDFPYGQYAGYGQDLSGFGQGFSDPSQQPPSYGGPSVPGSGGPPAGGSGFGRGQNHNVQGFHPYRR

How the values were obtained:
Assay in all cases: log2 fold change, soluble protein after heating vs DMSO (PISA); higher = thermal stabilisation; K562 cells, 10 uM, 30 min; active = over 0.2 and 3.5 SD of the protein, either way, in both replicates (recomputed)
IRAK-1-4 Inhibitor I = compound: C1COCCN1CCN2C3=CC=CC=C3N=C2NC(=O)C4=CC(=CC=C4)[N+](=O)[O-] [IRAK-1-4 Inhibitor I]
Outline: (§1)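 Thermal stability values are relative to control samples and come from duplicates. They are expressed as log2 fold changes. For measurement, K562 cells (2×10^6 cells/mL) received 10 μM compound for 30 min, and aliquots were heated for 3 min over 48°C-58°C, pooled, and extracted at 4°C in PBS with 0.5% NP-40. Soluble protein, the supernatant after 21,000xg for 90 min, was quantified by TMTpro 16plex LC-MS/MS with equalised channel sums.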

ibrutinib = compound: C=CC(=O)N1CCC[C@@H](n2nc(-c3ccc(Oc4ccccc4)cc3)c3c(N)ncnc32)C1 [ibrutinib]
Outline: as §1

[1] = compound: CC(=O)c1cnc2ccc(-c3cc(Cl)c(O)c(Cl)c3)nc2c1N[C@H]1CC[C@H](CN(C)C)CC1
Outline: as §1

ralimetinib = compound: CC(C)(C)Cn1c(N)nc2ccc(-c3[nH]c(C(C)(C)C)nc3-c3ccc(F)cc3)nc21 [ralimetinib]
Outline: as §1

[2] = compound: CC(C)(O)CC(=O)NCCn1ccc2ncnc(Nc3ccc(Oc4cccc(C(F)(F)F)c4)c(Cl)c3)c21
Outline: as §1

[3] = compound: CC(C)C1=C2N=C(C=C(N2N=C1)NCC3=CC=CC=C3)NCCCCCCN
Outline: as §1

[4] = compound: CC(C)C[C@@H](C=O)NC(=O)[C@H](CC(C)C)NC(=O)[C@H](CC(C)C)NC(=O)OCc1ccccc1
Outline: as §1

pinometostat = compound: CC(C)N(C[C@H]1O[C@@H](n2cnc3c(N)ncnc32)[C@H](O)[C@@H]1O)[C@H]1C[C@@H](CCc2nc3cc(C(C)(C)C)ccc3[nH]2)C1 [pinometostat]
Outline: as §1

[5] = compound: CC1=C(C(CC(=O)N1)C2=CC=C(C=C2)C(F)(F)F)C(=O)NC3=C(C=C4C(=C3)C=NN4)F
Outline: as §1

[6] = compound: CC1=C(C2=C(C=C1)C(=O)C3=CC=CC=C3N2CCCN)C
Outline: as §1

[7] = compound: CC1=C(C=C(C=C1)NC(=O)C2=CC(=CC=C2)C(C)(C)C#N)NC3=CC4=C(C=C3)N=CN(C4=O)C
Outline: as §1

[8] = compound: CC1=C(C=C(C=C1)NC(=O)C2=CC(=CC=C2)N(C)C)NC(=O)C3=CC=C(C=C3)O
Outline: as §1

[9] = compound: CC1=CC=C(C=C1)SC2=C3C=C(SC3=CN=C2)C(=O)N
Outline: as §1

[10] = compound: CC1=NC(=CC=C1)C2=C(N=C(N2)C(C)(C)C)C3=CC4=NC=CN=C4C=C3
Outline: as §1

Nexturastat A = compound: CCCCN(Cc1ccc(C(=O)NO)cc1)C(=O)Nc1ccccc1 [Nexturastat A]
Outline: as §1

vemurafenib = compound: CCCS(=O)(=O)Nc1ccc(F)c(C(=O)c2c[nH]c3ncc(-c4ccc(Cl)cc4)cc23)c1F [vemurafenib]
Outline: as §1

[11] = compound: CCCS(=O)(=O)Nc1ccc(F)c(C(=O)c2c[nH]c3ncc(Cl)cc23)c1F
Outline: as §1

[12] = compound: CCCc1cc(C)[nH]c(=O)c1CNC(=O)c1cc(-c2ccnc(N3CCN(C)CC3)c2)cc2c1cnn2C(C)C
Outline: as §1

givinostat = compound: CCN(CC)Cc1ccc2cc(COC(=O)Nc3ccc(C(=O)NO)cc3)ccc2c1 [givinostat]
Outline: as §1

barasertib = compound: CCN(CCCOc1ccc2c(Nc3cc(CC(=O)Nc4cccc(F)c4)[nH]n3)ncnc2c1)CCOP(=O)(O)O [barasertib]
Outline: as §1

Measured: log2 fold change

DCAF15 (UniProt Q66K64)
inactive: IRAK-1-4 Inhibitor I 0.011 | ibrutinib -0.065 | [1] 0.07 | ralimetinib -0.049 | [2] 0.007 | [3] 0.089 | [4] 0.117 | pinometostat 0.033 | [5] 0.027 | [6] 0.085 | [7] -0.045 | [8] 0.034 | [9] 0.059 | [10] 0.023 | Nexturastat A 0.069 | vemurafenib 0.114 | [11] 0.06 | [12] -0.031 | givinostat 0.02 | barasertib 0.041

DARS2 (UniProt Q6PI48)
inactive: IRAK-1-4 Inhibitor I -0.019 | ibrutinib 0.015 | [1] 0.055 | ralimetinib 0.001 | [2] 0 | [3] -0.001 | [4] -0.028 | pinometostat -0.051 | [5] 0.04 | [6] 0.016 | [7] 0.001 | [8] 0.018 | [9] -0.015 | [10] 0.016 | Nexturastat A 0.019 | vemurafenib 0.015 | [11] 0.019 | [12] -0.012 | givinostat -0.042 | barasertib -0.028

DCTN6 (UniProt O00399)
inactive: IRAK-1-4 Inhibitor I 0.027 | ibrutinib 0.015 | [1] 0.007 | ralimetinib 0.068 | [2] 0.046 | [3] 0.022 | [4] -0.058 | pinometostat -0.052 | [5] 0.001 | [6] 0.023 | [7] -0.068 | [8] -0.098 | [9] -0.03 | [10] 0.025 | Nexturastat A 0.012 | vemurafenib -0.02 | [11] 0.028 | [12] -0.039 | givinostat 0.008 | barasertib 0.015

CWC25 (UniProt Q9NXE8)
inactive: IRAK-1-4 Inhibitor I -0.209 | ibrutinib -0.071 | [1] 0.007 | ralimetinib 0.087 | [2] 0.048 | [3] 0.071 | [4] 0.196 | pinometostat 0.208 | [5] 0.008 | [6] 0.172 | [7] -0.052 | [8] 0.035 | [10] 0.012 | Nexturastat A 0.172 | [12] 0.092 | givinostat 0.098 | barasertib 0.052

CTSA (UniProt P10619)
inactive: IRAK-1-4 Inhibitor I -0.006 | ibrutinib 0.017 | [1] 0.038 | ralimetinib -0.027 | [2] 0.027 | [3] -0.204 | [4] -0.017 | pinometostat 0.014 | [6] -0.058 | [7] -0.033 | [8] 0.011 | [9] -0.02 | [10] 0.003 | Nexturastat A -0.016 | vemurafenib -0.013 | [11] -0.039 | [12] -0.047 | givinostat 0.117 | barasertib 0

CUEDC2 (UniProt Q9H467)
inactive: IRAK-1-4 Inhibitor I 0.035 | ibrutinib -0.011 | [1] 0.003 | ralimetinib -0.026 | [2] -0.056 | [3] -0.003 | [4] 0.198 | pinometostat -0.001 | [6] -0.159 | [7] -0.03 | [8] -0.043 | [9] -0.001 | [10] -0.153 | Nexturastat A -0.019 | vemurafenib 0.009 | [11] 0.032 | [12] -0.01 | givinostat 0.055 | barasertib 0.091

CTCF (UniProt P49711)
inactive: IRAK-1-4 Inhibitor I -0.123 | ibrutinib 0.005 | [1] 0.092 | ralimetinib 0.142 | [2] 0.057 | [3] 0.087 | [4] 0.054 | pinometostat 0.204 | [5] 0.014 | [6] 0.584 | [7] -0.003 | [8] -0.018 | [9] -0.041 | [10] -0.133 | Nexturastat A 0.066 | vemurafenib -0.092 | [11] -0.039 | [12] 0.115 | givinostat -0.051 | barasertib -0.101

DAZAP1 (UniProt Q96EP5)
inactive: IRAK-1-4 Inhibitor I -0.052 | ibrutinib 0.068 | [1] 0.016 | ralimetinib 0.003 | [2] 0.092 | [3] 0.084 | [4] 0.005 | pinometostat -0.035 | [5] -0.033 | [6] 0.208 | [7] 0.059 | [8] 0.039 | [9] -0.032 | [10] 0.026 | Nexturastat A 0 | vemurafenib 0.028 | [11] 0.035 | [12] 0.213 | givinostat -0.032 | barasertib -0.047
